Data source: PubChem BioAssay AID686938 (Drosophila RNAi Screening Center, 2013)
The deposit covers about 23,000 reagents; this is an unselected part of those with a known target gene and a result. In the full data, 75 (0.33%) are marked active. 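Raw plate signals without normalisation; calls rest on plate z-scores that were not deposited; ratio present for only 364 wells.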 A number with no mark means an inactive call. Reagents against one gene are numbered here. A plus sign joins genes that one reagent is predicted to hit. Not given: the dose of the treatment.

Aim: 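Fly genes required for calcium entry once internal stores are emptied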 (primary screen)
Cells: Drosophila S2R+ cells
Reagent: long dsRNA against Drosophila genes, about 0.25 µg dsRNA per well, roughly 10,000 cells
Timing: 5 days of knock-down before the calcium assay
Conditions: thapsigargin (SERCA pump blocker) to empty calcium stores; entry signal taken 4 min after adding it
Read-out: 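Per-well fluo-4 fluorescence in two replicates, unnormalised, measured in resting cells and 4 min after store depletion by the SERCA blocker thapsigargin; ratio of the two present in few wells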
Reading the numbers: calcium entry signal: higher = stronger calcium signal after store depletion; resting calcium signal: higher = higher resting calcium signal
Rule for the call: 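Hit if the duplicate-averaged plate z-score for entry over resting signal is under −3; wells with weak total dye signal (Fmax z < −2) or more than 5 off-targets removed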
Meaning of the calls: active = strongly reduced calcium entry; inactive = no strong reduction

no.	gene	reagent	calcium entry signal, replicate 1 (fluorescence units)	calcium entry signal, replicate 2 (fluorescence units)	resting calcium signal, replicate 1 (fluorescence units)	resting calcium signal, replicate 2 (fluorescence units)
1	CG31121	1	3.56e7	5.52e7	1.73e7	2.43e7
2	CG31121	2	3.90e7	4.86e7	1.90e7	2.19e7
3	l(2)k05819	1	3.73e7		2.26e7	
4	beta-Man	1	3.95e7	4.31e7	1.85e7	3.02e7
5	beta-Man	2	3.17e7	4.09e7	1.55e7	1.85e7
6	beg	1	2.93e7	3.89e7	1.45e7	2.52e7
7	CG13148	1	3.11e7	4.09e7	1.80e7	1.96e7
8	lncRNA:CR42646	1	2.92e7	6.26e7	1.37e7	2.63e7
9	Cyp308a1	1	4.54e7	3.81e7	2.12e7	1.67e7
10	CG7943	1	3.03e7	3.69e7	1.51e7	1.68e7
11	mri	1	4.46e7	4.43e7	2.03e7	2.16e7
12	ATPsynCF6L	1	3.61e7	5.82e7	1.72e7	2.52e7
13	Snap24	1	8.31e6	2.89e7	7.94e6	1.41e7
14	CG16812	1	4.71e7		2.34e7	
15	CG30195	1	3.16e7	4.12e7	1.70e7	1.91e7
16	Hibch	1	4.44e7	5.16e7	1.79e7	2.27e7
17	oc	1	3.89e7	3.94e7	2.11e7	1.97e7
18	CG13526	1	4.25e7	5.43e7	2.17e7	2.45e7
19	Jheh2	1	5.11e7	3.63e7	2.03e7	1.95e7
20	CG13056	1	4.17e7	6.26e7	2.13e7	2.70e7
21	glo	1	4.87e7	4.26e7	1.98e7	1.90e7
22	dib	1	4.78e7	2.97e7	3.06e7	1.33e7
23	nes	1	2.23e7	3.56e7	1.10e7	1.48e7
24	Spred	1	4.33e7	4.36e7	1.84e7	2.09e7
25	MnM	1	3.29e7	2.88e7	1.85e7	1.49e7
26	CG1074	1	4.05e7	3.53e7	1.82e7	1.67e7
27	ogre	1	4.22e7	4.59e7	2.01e7	2.08e7
28	CG17110	1	4.89e7	5.44e7	2.50e7	2.27e7
29	APC10	1	4.19e7	4.31e7	2.34e7	2.45e7
30	CG13630	1	4.06e7	4.15e7	1.71e7	1.78e7
31	CG9083 + Tpc2	1	2.65e7		1.33e7	
32	PIG-X	1	3.08e7	2.86e7	1.77e7	1.30e7
33	CG42353 + CG42354	1	3.31e7	2.92e7	1.73e7	1.45e7
34	COX6AL	1	4.67e7	3.22e7	2.29e7	1.46e7
35	CG14450	1	2.18e7	3.00e7	1.16e7	1.42e7
36	CG15452	1	5.05e7	5.25e7	2.55e7	2.28e7
37	nmo	1	2.78e7	4.97e7	1.53e7	1.99e7
38	nmo	2	4.57e7	3.85e7	3.27e7	1.63e7
39	CG14891	1	4.48e7	3.39e7	2.08e7	1.48e7
40	CG15754	1	4.07e7	4.62e7	2.02e7	1.95e7
41	CG15820	1	3.97e7	3.30e7	1.73e7	1.74e7
42	cl	1	4.36e7		2.40e7	
43	Cpr5C	1	3.86e7	5.61e7	1.90e7	3.00e7
44	CG30458	1	5.01e7	2.99e7	2.15e7	1.57e7
45	CG32708	1	1.68e7	4.42e7	9.32e6	1.98e7
46	Fpgs2	1	3.87e7	3.35e7	1.89e7	1.63e7
47	Atx2	1	2.79e7	2.57e7	1.81e7	1.49e7
48	Atx2	2	3.53e7 (active)	3.05e7	2.41e7	1.97e7
49	Edem2	1	4.59e7	3.44e7	2.04e7	1.49e7
50	PolZ1	1	3.28e7	3.06e7	1.42e7	1.42e7
51	Bx	1	3.69e7	2.59e7	2.07e7	1.43e7
52	Bx	2	3.73e7	3.16e7	1.80e7	1.50e7
53	Bx	3	2.64e7	2.72e7	1.21e7	1.29e7
54	pxb	1	3.29e7	4.87e7	1.57e7	2.16e7
55	pxb	2	2.38e7	3.17e7	1.20e7	1.57e7
56	pxb	3	2.26e7	3.86e7	1.19e7	5.39e7
57	pxb	4	4.75e7	3.73e7	2.80e7	1.78e7
58	Dhc16F	1	3.38e7	3.56e7	1.72e7	1.60e7
